Measured values as given in patent US20150141622A1 (published 2015).
No constants are given. Whether binding was seen depends on the method and setting. Some results given as binding are weak or reduced against the parent protein; the word gives no strength.

Protein sequences, listed by entry. Tags and fused reporters are not part of them. Lines headed by an entry give the natural chain unless they say otherwise; changes in a name come on top.
UniProt O43915: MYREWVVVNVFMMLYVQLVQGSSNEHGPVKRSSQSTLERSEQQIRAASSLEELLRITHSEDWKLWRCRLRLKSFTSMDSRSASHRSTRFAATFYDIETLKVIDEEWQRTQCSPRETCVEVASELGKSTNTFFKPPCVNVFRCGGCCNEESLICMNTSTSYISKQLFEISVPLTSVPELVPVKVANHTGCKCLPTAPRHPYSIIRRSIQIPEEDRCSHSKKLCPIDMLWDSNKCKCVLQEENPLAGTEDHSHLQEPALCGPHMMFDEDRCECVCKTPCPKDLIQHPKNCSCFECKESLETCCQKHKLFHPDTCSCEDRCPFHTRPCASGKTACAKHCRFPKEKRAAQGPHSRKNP
UniProt P35916: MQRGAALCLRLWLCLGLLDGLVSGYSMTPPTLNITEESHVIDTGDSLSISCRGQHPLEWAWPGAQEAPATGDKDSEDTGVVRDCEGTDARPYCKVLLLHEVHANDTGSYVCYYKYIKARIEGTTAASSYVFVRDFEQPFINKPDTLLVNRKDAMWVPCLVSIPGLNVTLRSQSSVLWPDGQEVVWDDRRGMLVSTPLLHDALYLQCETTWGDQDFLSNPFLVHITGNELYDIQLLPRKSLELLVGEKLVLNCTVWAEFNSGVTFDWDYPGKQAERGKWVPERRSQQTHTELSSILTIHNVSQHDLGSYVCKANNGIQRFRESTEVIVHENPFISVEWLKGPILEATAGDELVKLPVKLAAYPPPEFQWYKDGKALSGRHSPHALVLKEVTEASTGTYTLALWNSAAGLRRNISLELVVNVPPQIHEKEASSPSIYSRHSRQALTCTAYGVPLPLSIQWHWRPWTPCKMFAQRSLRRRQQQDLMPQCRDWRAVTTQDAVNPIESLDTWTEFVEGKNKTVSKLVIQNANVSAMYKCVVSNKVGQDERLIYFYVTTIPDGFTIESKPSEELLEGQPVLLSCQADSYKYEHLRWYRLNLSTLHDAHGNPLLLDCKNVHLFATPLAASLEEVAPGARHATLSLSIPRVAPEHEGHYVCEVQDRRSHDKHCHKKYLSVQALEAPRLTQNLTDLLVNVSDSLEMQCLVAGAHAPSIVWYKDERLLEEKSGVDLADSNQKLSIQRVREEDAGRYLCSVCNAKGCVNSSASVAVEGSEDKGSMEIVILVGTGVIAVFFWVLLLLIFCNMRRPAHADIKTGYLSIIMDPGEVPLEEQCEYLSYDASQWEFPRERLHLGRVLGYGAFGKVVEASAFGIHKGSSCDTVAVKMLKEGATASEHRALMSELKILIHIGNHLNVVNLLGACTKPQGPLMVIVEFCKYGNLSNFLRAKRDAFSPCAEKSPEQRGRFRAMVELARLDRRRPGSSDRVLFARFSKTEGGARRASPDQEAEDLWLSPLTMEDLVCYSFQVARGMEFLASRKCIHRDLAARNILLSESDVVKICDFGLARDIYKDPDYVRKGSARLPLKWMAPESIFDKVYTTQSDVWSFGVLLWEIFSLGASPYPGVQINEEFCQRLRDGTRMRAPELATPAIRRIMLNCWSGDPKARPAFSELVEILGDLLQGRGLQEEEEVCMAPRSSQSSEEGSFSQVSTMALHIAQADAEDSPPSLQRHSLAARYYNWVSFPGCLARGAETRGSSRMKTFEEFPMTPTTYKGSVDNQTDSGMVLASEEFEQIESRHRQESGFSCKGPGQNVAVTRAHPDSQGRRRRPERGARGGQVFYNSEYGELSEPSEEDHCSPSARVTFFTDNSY

Target: VEGF-D (R&D Systems) (Homo sapiens (Human)) (UniProt O43915)
Assay: method not described

**Q.** “full-length extracellular domain of VEGFR-3 (from UniProt P35916 25-775) (receptor)” was tested. Which binding did it give?
**A.** Its binding is “binds”.
